From the supplement of paper PMC12067093, “Discovery and optimisation of a covalent ligand for TRIM25 and its application to targeted protein ubiquitination” (Chemical Science, 2025)
This is one part of the list.

Amino acid sequences for entries named in this document (tags omitted). A change or cut given only in a name is not applied to a line headed by its entry.
UniProt O14976: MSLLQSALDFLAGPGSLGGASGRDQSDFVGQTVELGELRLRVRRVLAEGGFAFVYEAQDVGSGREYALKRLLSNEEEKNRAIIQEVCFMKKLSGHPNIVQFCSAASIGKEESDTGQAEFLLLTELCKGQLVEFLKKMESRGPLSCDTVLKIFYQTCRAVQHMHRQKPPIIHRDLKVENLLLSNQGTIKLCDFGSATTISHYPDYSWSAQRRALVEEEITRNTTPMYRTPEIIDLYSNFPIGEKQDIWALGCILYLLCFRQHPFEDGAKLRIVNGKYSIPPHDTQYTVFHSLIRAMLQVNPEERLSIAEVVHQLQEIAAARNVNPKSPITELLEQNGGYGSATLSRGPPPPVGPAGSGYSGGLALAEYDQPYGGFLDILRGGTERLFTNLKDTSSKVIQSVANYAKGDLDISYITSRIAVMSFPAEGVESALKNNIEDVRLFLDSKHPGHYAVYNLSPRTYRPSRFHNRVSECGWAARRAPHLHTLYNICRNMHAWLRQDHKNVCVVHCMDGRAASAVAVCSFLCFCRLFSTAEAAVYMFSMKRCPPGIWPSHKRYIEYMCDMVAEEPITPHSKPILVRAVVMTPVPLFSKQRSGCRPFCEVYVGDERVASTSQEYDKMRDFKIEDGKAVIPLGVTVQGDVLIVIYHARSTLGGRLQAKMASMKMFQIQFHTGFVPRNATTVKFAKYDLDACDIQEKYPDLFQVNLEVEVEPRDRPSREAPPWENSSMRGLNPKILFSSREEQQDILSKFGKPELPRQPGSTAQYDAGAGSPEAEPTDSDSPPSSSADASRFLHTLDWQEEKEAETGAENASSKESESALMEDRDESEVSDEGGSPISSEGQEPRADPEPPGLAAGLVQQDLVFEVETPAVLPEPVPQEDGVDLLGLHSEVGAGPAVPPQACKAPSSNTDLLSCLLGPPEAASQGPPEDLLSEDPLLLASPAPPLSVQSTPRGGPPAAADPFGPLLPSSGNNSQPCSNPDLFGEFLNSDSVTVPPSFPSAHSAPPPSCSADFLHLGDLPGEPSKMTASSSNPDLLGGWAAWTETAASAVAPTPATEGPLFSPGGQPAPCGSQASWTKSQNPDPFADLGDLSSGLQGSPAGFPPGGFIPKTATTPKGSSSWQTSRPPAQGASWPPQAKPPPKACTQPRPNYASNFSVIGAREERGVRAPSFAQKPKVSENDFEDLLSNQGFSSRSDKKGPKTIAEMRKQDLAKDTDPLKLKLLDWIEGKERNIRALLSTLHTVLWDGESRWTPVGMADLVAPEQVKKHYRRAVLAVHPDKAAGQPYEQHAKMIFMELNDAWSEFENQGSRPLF
UniProt Q13045: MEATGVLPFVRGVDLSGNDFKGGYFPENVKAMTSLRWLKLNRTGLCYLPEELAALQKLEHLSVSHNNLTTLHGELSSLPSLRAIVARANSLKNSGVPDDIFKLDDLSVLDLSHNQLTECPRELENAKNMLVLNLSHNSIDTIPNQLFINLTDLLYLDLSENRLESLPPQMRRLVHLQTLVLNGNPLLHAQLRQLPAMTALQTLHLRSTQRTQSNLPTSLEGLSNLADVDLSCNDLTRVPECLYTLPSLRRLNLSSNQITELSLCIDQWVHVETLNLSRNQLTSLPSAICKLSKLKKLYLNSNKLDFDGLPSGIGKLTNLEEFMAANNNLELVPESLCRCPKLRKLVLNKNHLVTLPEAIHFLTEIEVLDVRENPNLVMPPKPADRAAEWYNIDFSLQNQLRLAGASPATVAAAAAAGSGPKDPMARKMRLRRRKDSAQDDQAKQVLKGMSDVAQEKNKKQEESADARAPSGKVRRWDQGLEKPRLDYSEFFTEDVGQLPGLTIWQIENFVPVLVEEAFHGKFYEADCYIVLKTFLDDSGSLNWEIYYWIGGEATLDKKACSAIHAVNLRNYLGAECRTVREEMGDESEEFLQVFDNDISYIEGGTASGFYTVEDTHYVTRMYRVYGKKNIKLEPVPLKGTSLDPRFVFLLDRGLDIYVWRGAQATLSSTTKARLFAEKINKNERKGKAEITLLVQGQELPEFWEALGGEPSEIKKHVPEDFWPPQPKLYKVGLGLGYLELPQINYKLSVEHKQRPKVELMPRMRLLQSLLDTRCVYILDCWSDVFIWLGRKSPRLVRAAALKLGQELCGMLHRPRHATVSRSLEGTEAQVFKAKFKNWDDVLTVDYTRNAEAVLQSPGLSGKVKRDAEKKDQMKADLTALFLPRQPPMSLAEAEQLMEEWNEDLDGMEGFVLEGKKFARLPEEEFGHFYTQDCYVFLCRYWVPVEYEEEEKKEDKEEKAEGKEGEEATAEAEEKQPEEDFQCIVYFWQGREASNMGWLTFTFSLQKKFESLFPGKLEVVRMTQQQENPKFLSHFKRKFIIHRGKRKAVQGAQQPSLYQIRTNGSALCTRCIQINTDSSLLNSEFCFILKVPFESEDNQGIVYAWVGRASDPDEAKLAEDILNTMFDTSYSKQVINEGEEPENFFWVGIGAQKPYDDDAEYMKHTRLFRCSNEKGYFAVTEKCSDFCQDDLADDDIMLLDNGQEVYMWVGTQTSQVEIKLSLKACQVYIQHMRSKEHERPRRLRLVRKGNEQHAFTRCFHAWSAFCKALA
UniProt O75369, whole entry, looked up: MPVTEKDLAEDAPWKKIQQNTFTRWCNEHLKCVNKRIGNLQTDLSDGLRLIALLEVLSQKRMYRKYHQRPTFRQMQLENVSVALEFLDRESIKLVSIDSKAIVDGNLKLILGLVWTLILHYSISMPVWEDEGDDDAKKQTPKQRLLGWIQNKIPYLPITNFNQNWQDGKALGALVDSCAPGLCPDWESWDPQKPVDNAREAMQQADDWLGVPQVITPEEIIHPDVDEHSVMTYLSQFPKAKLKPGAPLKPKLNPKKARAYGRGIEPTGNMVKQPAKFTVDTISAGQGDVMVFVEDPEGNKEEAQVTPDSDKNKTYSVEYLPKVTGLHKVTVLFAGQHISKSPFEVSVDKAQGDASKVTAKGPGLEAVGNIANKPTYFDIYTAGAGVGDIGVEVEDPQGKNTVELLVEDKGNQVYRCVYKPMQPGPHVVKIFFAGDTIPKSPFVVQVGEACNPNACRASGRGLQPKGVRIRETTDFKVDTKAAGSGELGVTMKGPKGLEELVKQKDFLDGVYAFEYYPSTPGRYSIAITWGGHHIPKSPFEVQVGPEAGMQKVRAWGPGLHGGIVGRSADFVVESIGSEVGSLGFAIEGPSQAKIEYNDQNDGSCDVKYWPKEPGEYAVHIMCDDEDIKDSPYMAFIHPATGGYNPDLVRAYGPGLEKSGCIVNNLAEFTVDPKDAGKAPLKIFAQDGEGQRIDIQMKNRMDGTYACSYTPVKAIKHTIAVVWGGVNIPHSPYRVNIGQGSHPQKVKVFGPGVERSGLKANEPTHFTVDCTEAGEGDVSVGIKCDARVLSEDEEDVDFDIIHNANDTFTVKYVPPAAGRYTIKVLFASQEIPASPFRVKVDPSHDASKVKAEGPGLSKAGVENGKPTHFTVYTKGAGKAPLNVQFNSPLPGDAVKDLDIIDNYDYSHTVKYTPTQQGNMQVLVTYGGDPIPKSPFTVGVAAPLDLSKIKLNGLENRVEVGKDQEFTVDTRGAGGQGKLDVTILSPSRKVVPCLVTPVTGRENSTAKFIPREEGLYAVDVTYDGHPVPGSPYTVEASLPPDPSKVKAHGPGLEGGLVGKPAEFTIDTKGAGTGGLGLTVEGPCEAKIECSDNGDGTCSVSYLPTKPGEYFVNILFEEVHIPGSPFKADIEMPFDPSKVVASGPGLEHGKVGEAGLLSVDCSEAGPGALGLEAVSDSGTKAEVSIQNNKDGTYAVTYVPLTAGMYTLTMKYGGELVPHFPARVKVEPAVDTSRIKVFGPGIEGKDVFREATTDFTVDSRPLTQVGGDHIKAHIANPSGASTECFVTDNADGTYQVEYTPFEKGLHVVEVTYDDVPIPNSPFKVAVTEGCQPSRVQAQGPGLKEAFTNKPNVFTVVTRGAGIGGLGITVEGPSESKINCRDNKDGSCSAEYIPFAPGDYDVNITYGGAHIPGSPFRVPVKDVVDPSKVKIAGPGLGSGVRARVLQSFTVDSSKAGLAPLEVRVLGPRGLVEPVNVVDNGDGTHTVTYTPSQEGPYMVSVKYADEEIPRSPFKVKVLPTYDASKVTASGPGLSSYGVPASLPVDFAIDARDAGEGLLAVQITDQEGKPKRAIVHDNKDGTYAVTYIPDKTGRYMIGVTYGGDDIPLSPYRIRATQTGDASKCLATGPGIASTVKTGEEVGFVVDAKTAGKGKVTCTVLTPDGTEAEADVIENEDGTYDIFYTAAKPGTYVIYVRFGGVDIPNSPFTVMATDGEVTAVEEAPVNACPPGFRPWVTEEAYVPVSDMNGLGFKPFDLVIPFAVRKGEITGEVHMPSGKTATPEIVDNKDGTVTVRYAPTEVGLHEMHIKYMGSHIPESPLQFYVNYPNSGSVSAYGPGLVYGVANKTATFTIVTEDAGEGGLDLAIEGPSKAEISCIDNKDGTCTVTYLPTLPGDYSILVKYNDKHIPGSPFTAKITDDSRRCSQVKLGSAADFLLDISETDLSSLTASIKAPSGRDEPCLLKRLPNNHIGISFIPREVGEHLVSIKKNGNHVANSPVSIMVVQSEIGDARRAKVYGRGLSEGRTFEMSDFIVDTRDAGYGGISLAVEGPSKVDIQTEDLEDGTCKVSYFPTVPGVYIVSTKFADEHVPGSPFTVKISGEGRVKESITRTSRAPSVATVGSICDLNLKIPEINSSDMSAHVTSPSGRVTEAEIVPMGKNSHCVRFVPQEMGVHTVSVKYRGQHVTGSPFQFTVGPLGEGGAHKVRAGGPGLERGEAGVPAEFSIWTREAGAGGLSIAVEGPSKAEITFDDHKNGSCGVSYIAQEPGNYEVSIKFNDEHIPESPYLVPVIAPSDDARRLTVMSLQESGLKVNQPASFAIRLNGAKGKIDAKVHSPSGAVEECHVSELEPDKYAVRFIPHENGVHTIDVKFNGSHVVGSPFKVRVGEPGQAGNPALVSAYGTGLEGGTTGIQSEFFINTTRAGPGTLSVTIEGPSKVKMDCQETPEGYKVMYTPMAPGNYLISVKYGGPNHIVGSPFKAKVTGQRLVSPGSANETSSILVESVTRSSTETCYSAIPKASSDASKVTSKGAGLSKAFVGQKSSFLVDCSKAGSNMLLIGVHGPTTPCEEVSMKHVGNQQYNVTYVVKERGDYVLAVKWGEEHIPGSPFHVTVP
UniProt Q9BZ67: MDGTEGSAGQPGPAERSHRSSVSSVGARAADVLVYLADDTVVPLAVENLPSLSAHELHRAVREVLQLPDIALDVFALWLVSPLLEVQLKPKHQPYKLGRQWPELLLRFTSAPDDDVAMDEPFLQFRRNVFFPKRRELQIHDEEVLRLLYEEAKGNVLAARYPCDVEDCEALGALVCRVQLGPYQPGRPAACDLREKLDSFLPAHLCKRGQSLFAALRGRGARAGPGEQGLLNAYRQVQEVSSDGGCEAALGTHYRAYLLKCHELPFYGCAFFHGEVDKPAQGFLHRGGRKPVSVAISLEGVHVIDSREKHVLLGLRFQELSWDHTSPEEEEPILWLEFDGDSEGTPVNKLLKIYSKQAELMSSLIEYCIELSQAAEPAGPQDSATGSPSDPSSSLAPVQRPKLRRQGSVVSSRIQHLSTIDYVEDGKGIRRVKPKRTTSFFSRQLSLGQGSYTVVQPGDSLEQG
UniProt Q13643: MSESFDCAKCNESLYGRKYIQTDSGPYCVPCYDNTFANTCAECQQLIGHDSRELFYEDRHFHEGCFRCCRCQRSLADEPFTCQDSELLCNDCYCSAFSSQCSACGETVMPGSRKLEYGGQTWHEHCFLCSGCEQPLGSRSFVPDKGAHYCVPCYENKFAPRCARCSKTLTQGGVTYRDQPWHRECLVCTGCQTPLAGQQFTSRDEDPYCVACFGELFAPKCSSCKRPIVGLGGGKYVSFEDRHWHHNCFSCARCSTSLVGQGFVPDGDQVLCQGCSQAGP
UniProt O95302: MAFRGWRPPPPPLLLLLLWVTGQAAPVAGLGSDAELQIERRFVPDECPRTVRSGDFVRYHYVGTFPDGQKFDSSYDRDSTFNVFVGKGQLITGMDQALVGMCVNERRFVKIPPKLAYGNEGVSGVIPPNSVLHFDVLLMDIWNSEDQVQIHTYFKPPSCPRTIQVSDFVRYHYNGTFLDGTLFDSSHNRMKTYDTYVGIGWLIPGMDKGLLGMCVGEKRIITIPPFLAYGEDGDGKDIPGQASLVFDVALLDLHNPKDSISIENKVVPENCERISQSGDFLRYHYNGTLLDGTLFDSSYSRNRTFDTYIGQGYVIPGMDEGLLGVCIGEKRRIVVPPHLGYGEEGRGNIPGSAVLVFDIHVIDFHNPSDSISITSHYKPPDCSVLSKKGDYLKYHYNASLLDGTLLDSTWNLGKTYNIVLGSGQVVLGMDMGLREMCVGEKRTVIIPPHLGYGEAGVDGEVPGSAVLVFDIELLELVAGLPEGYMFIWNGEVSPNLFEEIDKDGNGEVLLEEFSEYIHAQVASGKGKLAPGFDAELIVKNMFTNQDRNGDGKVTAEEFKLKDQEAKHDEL

Compound: Cc1cc(ccc1-c1ccccc1)C(=O)N1CCCN(CC1)C(=O)CCl [compound 10]
Assay: probe-labelled cysteine peptide fold change vs DMSO (competition) (log2 fold change); higher = less target engagement (more negative = stronger competition)
Details: THP-1, incubation time: 4 h
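Further: competitive profiling in live THP-1 cells: cysteine peptides tagged with an iodoacetamide desthiobiotin (IA-DTB) probe, intensity after compound treatment relative to DMSO-treated cells.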

## GAK_O14976_560_YIEYMCDMVAEEPITPHSKPILVR (UniProt O14976)
10 µM
  probe-labelled cysteine peptide fold change: -0.0324
50 µM
  probe-labelled cysteine peptide fold change: -0.231

## FLYWCH2_Q96CP2_132_TEDSGLAAGPPEAAGENFAPCSVAPGK (UniProt Q96CP2)
10 µM
  probe-labelled cysteine peptide fold change: -0.348
50 µM
  probe-labelled cysteine peptide fold change: 0.15

## GALE_Q14376_330_MCEDLWR (UniProt Q14376)
10 µM
  probe-labelled cysteine peptide fold change: 0.036
50 µM
  probe-labelled cysteine peptide fold change: -0.0538

## FNBP1_Q96RU3_130_AQQHIETCWK (UniProt Q96RU3)
10 µM
  probe-labelled cysteine peptide fold change: 0.0278
50 µM
  probe-labelled cysteine peptide fold change: 0.00215

## FLII_Q13045_119_LDDLSVLDLSHNQLTECPR (UniProt Q13045)
10 µM
  probe-labelled cysteine peptide fold change: -0.0794
50 µM
  probe-labelled cysteine peptide fold change: 0.293

## FH_P07954_434_LLGDASVSFTENCVVGIQANTER (UniProt P07954)
10 µM
  probe-labelled cysteine peptide fold change: -0.37
50 µM
  probe-labelled cysteine peptide fold change: -0.0787

## FLNB_O75369_1952_DEPCLLK (UniProt O75369)
10 µM
  probe-labelled cysteine peptide fold change: 0.0605
50 µM
  probe-labelled cysteine peptide fold change: 0.375

## FUCA2_Q9BTY2_269_WGAGSICK (UniProt Q9BTY2)
10 µM
  probe-labelled cysteine peptide fold change: -0.237
50 µM
  probe-labelled cysteine peptide fold change: -0.248

## FRMD8_Q9BZ67_206_EKLDSFLPAHLCK (UniProt Q9BZ67)
10 µM
  probe-labelled cysteine peptide fold change: -0.331
50 µM
  probe-labelled cysteine peptide fold change: -0.964

## FHL3_Q13643_10_CNESLYGR (UniProt Q13643)
10 µM
  probe-labelled cysteine peptide fold change: 0.121
50 µM
  probe-labelled cysteine peptide fold change: -0.0227

## FNBP4_Q8N3X1_673_TGTDSNSTESSETSTGSLCK (UniProt Q8N3X1)
10 µM
  probe-labelled cysteine peptide fold change: -0.132
50 µM
  probe-labelled cysteine peptide fold change: -0.451

## FRYL_O94915_1575_VMEHNQGEPLPFPPAGGCWSPLVDYVPETSSPGLPLHR (UniProt O94915)
10 µM
  probe-labelled cysteine peptide fold change: 0.235
50 µM
  probe-labelled cysteine peptide fold change: 0.578

## FUS_P35637_433_CPNPTCENMNFSWR (UniProt P35637)
10 µM
  probe-labelled cysteine peptide fold change: 0.134
50 µM
  probe-labelled cysteine peptide fold change: 0.15

## FKBP9_O95302_214_GLLGMCVGEK (UniProt O95302)
10 µM
  probe-labelled cysteine peptide fold change: -0.163
50 µM
  probe-labelled cysteine peptide fold change: 0.137

## FLNB_O75369_2115_APSVATVGSICDLNLK (UniProt O75369)
10 µM
  probe-labelled cysteine peptide fold change: 0.00636
50 µM
  probe-labelled cysteine peptide fold change: -0.0153

## GAK_O14976_599_SGCRPFCEVYVGDER (UniProt O14976)
10 µM
  probe-labelled cysteine peptide fold change: -0.133
50 µM
  probe-labelled cysteine peptide fold change: -0.425

## FLAD1_Q8NFF5_561_CLSPGGHPTYRPAYLLENEEEER (UniProt Q8NFF5)
10 µM
  probe-labelled cysteine peptide fold change: -0.0194
50 µM
  probe-labelled cysteine peptide fold change: 0.376

## FKBP8_Q14318_227_ECGNAHYQR (UniProt Q14318)
10 µM
  probe-labelled cysteine peptide fold change: 0.121
50 µM
  probe-labelled cysteine peptide fold change: -0.0275

## FSCN1_Q16658_397_GEHGFIGCR (UniProt Q16658)
10 µM
  probe-labelled cysteine peptide fold change: 0.0894
50 µM
  probe-labelled cysteine peptide fold change: 0.108

## FRMD8_Q9BZ67_206_LDSFLPAHLCK (UniProt Q9BZ67)
10 µM
  probe-labelled cysteine peptide fold change: -0.0859
50 µM
  probe-labelled cysteine peptide fold change: -0.347

## FSCN1_Q16658_260_VGKDELFALEQSCAQVVLQAANER (UniProt Q16658)
10 µM
  probe-labelled cysteine peptide fold change: -0.0958
50 µM
  probe-labelled cysteine peptide fold change: 0.0402

## FLCN_Q8NFG4_454_STLHPVGCEDDQSLSK (UniProt Q8NFG4)
10 µM
  probe-labelled cysteine peptide fold change: -0.00579
50 µM
  probe-labelled cysteine peptide fold change: -0.0219

## FLNB_O75369_2333_VHSPSGAVEECHVSELEPDK (UniProt O75369)
10 µM
  probe-labelled cysteine peptide fold change: -0.0699
50 µM
  probe-labelled cysteine peptide fold change: 0.064

## GAK_O14976_1142_ACTQPRPNYASNFSVIGAR (UniProt O14976)
10 µM
  probe-labelled cysteine peptide fold change: -0.198
50 µM
  probe-labelled cysteine peptide fold change: -0.399

## FMR1_Q06787_584_VDCNNER (UniProt Q06787)
10 µM
  probe-labelled cysteine peptide fold change: 0.0799
50 µM
  probe-labelled cysteine peptide fold change: 0.538

## FLNB_O75369_455_SPFVVQVGEACNPNACR (UniProt O75369)
10 µM
  probe-labelled cysteine peptide fold change: 0.0157
50 µM
  probe-labelled cysteine peptide fold change: -0.0746

## FHL2_Q14192_224_CAGCTNPISGLGGTK (UniProt Q14192)
10 µM
  probe-labelled cysteine peptide fold change: -0.0925
50 µM
  probe-labelled cysteine peptide fold change: -0.184

## FYCO1_Q9BQS8_709+719_EGECQQLREEVEQCQQLAEAR (UniProt Q9BQS8)
10 µM
  probe-labelled cysteine peptide fold change: -0.174
50 µM
  probe-labelled cysteine peptide fold change: -0.546

## FTSJ3_Q8IY81_577_QQLPQTPPSCLK (UniProt Q8IY81)
10 µM
  probe-labelled cysteine peptide fold change: -0.0519
50 µM
  probe-labelled cysteine peptide fold change: -0.407

## FSCN1_Q16658_80_YLAADKDGNVTCER (UniProt Q16658)
10 µM
  probe-labelled cysteine peptide fold change: -0.138
50 µM
  probe-labelled cysteine peptide fold change: -0.591

## FXR2_P51116_151_VTMAVPEDLREACSNENVHK (UniProt P51116)
10 µM
  probe-labelled cysteine peptide fold change: 0.1
50 µM
  probe-labelled cysteine peptide fold change: -0.177

## GABPA_Q06546_421_LVTECEQK (UniProt Q06546)
10 µM
  probe-labelled cysteine peptide fold change: 0.0311
50 µM
  probe-labelled cysteine peptide fold change: -0.108

## FYN_P06241_404_SANILVGNGLICK (UniProt P06241)
10 µM
  probe-labelled cysteine peptide fold change: -0.0622
50 µM
  probe-labelled cysteine peptide fold change: -0.152

## FKBP9_O95302_47_FVPDECPR (UniProt O95302)
10 µM
  probe-labelled cysteine peptide fold change: -0.137
50 µM
  probe-labelled cysteine peptide fold change: -0.0897

## FXR1_P51114_129_CTVDVPEDLREACANENAHK (UniProt P51114)
10 µM
  probe-labelled cysteine peptide fold change: -0.0546
50 µM
  probe-labelled cysteine peptide fold change: -0.163

## FLII_Q13045_933+938_LPEEEFGHFYTQDCYVFLCR (UniProt Q13045)
10 µM
  probe-labelled cysteine peptide fold change: 0.0227
50 µM
  probe-labelled cysteine peptide fold change: -0.157

## FUBP3_Q96I24_109_IQAESGCK (UniProt Q96I24)
10 µM
  probe-labelled cysteine peptide fold change: 0.37
50 µM
  probe-labelled cysteine peptide fold change: 0.0876

## FKBP5_Q13451_103+107_KGEICHLLCKPEYAYGSAGSLPK (UniProt Q13451)
10 µM
  probe-labelled cysteine peptide fold change: 0.152
50 µM
  probe-labelled cysteine peptide fold change: -0.126

## FNDC3A_Q9Y2H6_560_SNPSEVVEFTTCPDKPGIPVKPSVK (UniProt Q9Y2H6)
10 µM
  probe-labelled cysteine peptide fold change: -0.0701
50 µM
  probe-labelled cysteine peptide fold change: 0.0586
